According to paper PMC5760199, “Structural insights into the assembly and polyA signal recognition mechanism of the human CPSF complex”:
These are yes or no findings as the source states them, for the method shown. For part of these data: In cells and extracts the contact can be indirect. Some results given as binding are weak or reduced against the parent protein; the word gives no strength. For part of these data: Tags and fused reporters may be left off the sequences shown.

By UniProt entry, the sequences of proteins in these tests, tags left out. Where a name states a change or a piece, a line headed by the entry shows the natural chain unless it says otherwise. Chains listed by the source or under a name are the forms on record and can include a tag or linker.
UniProt Q9C0J8: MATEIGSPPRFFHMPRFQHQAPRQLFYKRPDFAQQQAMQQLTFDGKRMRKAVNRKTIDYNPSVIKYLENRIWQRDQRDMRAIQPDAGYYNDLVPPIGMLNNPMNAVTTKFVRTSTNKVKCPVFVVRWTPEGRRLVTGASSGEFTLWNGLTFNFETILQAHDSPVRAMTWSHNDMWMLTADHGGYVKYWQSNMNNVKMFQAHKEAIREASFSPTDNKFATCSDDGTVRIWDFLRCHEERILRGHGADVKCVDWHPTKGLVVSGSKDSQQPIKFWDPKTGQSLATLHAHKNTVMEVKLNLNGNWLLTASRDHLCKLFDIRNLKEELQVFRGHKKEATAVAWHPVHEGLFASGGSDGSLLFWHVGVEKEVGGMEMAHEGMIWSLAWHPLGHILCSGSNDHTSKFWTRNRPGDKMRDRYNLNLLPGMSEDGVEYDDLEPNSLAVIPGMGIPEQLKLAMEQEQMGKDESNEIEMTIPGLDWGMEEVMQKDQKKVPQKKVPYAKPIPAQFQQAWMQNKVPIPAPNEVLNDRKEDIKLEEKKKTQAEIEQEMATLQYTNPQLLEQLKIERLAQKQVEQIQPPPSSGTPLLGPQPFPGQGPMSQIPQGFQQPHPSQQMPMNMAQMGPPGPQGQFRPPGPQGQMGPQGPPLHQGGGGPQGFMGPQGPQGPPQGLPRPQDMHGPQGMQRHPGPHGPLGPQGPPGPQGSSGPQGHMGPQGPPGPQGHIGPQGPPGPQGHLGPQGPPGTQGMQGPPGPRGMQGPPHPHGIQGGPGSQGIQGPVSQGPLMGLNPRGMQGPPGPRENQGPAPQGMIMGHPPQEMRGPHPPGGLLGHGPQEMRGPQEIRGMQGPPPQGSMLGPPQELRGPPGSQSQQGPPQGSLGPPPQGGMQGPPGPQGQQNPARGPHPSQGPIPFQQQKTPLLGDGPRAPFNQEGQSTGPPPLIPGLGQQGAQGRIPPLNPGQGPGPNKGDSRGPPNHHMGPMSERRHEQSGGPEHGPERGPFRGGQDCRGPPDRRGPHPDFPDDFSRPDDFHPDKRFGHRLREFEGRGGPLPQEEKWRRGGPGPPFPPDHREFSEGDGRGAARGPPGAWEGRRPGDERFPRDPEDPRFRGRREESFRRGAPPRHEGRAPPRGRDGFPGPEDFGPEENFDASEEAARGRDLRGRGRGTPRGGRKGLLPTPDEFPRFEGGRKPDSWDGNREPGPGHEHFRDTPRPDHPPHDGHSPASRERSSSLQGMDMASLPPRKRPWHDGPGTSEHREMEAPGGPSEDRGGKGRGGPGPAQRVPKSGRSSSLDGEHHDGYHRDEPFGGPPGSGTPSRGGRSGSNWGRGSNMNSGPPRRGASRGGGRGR
GFP-tagged CPSF30^FL (O95639-3, form named): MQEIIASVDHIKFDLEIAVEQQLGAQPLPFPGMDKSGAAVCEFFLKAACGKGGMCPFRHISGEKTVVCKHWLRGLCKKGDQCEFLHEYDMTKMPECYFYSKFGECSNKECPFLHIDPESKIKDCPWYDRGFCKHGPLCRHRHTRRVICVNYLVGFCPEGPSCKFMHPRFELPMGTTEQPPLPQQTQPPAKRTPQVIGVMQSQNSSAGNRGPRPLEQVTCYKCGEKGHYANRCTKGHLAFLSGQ

What was measured:
[1] = target: T1, CPSF160^FL-WDR33^M1-K410 heterodimer (human) (UniProt Q10570+Q9C0J8); experiment: co-purification of co-expressed subunits; subunits co-expressed in Sf9; Ni-NTA, then Streptactin, then SEC on Superdex-200 in 20 mM Tris-HCl pH 7.5, 150 mM NaCl, 1 mM DTT
[2] = target: T2, CPSF160^FL, subunit of the CPSF complexes purified by the tag on WDR33 (human) (UniProt Q10570); experiment: cross-linking; purified CPSF160^FL-WDR33^M1-G474-CPSF30^FL-Fip1^FL complex at 2 mg/ml, 1 mM DSS-d0/d12, 20 mM HEPES pH 7.5, 150 mM NaCl, 0.25 mM TCEP, 37°C 30 min; cross-linked peptides identified by mass spectrometry (xQuest score higher than 30); both purified
T2 sequence: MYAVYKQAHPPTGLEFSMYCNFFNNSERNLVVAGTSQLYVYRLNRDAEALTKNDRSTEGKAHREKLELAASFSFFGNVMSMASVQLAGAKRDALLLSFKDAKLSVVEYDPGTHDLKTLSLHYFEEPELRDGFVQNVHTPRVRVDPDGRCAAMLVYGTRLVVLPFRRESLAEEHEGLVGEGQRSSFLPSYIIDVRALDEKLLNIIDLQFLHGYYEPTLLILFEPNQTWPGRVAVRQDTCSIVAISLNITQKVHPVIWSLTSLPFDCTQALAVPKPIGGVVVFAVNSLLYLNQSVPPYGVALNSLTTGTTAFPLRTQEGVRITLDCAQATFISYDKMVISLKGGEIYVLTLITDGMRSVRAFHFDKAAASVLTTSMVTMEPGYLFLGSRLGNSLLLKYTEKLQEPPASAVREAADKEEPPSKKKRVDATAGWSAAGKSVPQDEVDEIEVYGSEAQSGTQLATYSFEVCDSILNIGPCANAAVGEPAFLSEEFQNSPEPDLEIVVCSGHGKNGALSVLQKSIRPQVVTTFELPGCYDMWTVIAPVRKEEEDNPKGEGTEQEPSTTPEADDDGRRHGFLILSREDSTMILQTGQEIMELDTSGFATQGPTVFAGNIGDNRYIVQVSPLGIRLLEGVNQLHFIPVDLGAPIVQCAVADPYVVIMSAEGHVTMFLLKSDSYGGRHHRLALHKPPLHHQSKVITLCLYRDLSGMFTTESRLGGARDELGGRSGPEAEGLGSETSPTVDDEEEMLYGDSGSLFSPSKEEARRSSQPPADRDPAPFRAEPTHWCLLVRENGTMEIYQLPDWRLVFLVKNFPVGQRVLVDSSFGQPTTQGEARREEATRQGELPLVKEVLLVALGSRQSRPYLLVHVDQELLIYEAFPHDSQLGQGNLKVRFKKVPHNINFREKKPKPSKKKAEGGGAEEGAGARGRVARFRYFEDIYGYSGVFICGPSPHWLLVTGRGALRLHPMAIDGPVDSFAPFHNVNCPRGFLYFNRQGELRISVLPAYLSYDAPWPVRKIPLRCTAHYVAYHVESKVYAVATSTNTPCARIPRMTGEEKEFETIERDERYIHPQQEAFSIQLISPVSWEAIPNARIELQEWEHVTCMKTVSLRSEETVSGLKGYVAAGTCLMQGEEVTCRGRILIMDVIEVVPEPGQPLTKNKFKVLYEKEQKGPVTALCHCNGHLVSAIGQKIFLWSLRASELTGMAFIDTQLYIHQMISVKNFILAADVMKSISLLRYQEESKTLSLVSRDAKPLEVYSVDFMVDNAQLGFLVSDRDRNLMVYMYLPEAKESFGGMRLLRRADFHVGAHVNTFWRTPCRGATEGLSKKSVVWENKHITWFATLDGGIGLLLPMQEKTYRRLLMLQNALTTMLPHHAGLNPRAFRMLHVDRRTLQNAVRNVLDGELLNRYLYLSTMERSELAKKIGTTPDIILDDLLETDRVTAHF

[3] = target: T1, CPSF160^FL-WDR33^M1-K410 heterodimer (human); experiment: pull-down; subunits co-expressed in Sf9; lysate on Ni-NTA, eluate on Streptactin beads, by the His6-(StrepII)2 tag on WDR33^M1-K410; 20 mM Tris-Cl pH 7.5, 200 mM NaCl, 10% glycerol, 0.05% Tween20; Coomassie and in-gel GFP fluorescence

Row | binding [1] | binding [2] | binding [3] | Substance
1 | binds | binds |  | CPSF30^FL, co-expressed subunit (from UniProt O95639-3 1-243)
2 |  |  | binds | GFP-tagged CPSF30^FL (from UniProt O95639-3 1-243)
